No constants are given. Whether binding was seen depends on the method and setting. In cells and extracts the contact can be indirect. Binding calls can cover weak binding; strength is not graded here.
Molecular target: PfpC_(EC039), phosphatase of the KKP_(EC039) module of E. coli 15EC039 (E. coli 15EC039)
Assay: pull-down; His-PfpC_(EC039) and Gp59 or Gp59^G32E co-expressed from one pETDuet plasmid in E. coli; complex purified on Ni-NTA resin and eluted with imidazole

B1: Gp59, phage T4 replication-related helicase loader (protein, UniProt P13342 1-217)
chain: MIKLRMPAGGERYIDGKSVYKLYLMIKQHMNGKYDVIKYNWCMRVSDAAYQKRRDKYFFQKLSEKYKLKELALIFISNLVANQDAWIGDISDADALVFYREYIGRLKQIKFKFEEDIRNIYYFSKKVEVSAFKEIFEYNPKVQSSYIFKLLQSNIISFETFILLDSFLNIIDKHDEQTDNLVWNNYSIKLKAYRKILNIDSQKAKNVFIETVKSCKY
B1 was tested. Which binding did it give?
The binding was “binds”.

From article PMC11341870
